Data on two substances can be found in patent publication US20140142045A1.

The chains behind the UniProt entries cited, without tags or fusion partners. Where a name states a change or a piece, a line headed by the entry shows the natural chain unless it says otherwise.
UniProt P25963: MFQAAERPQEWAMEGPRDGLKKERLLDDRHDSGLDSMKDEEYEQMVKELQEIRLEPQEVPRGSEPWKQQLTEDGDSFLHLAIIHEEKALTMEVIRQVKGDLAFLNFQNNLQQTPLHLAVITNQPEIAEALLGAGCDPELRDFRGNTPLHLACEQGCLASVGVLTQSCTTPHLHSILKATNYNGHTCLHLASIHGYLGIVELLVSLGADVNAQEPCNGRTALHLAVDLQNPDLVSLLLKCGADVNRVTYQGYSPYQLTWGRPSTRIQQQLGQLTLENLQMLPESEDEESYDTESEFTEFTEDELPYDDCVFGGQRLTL
UniProt P53805: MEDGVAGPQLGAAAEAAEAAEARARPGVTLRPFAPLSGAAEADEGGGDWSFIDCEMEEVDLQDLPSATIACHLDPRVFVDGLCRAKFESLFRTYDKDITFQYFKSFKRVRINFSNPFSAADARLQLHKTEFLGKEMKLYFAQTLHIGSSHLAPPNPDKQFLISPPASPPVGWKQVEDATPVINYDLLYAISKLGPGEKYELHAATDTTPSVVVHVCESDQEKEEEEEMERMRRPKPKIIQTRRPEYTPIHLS

No constants are given. Whether binding was seen depends on the method and setting. In cells and extracts the contact can be indirect. Some entries that bind do so weakly or less than the wild type.

In assay [1] the target is IKBα (KB inhibitor IKB, endogenous protein of HEK293 cells) (UniProt P25963). The assay is described as follows: co-immunoprecipitation from HEK293 lysate (anti-myc IP / anti-IKBα blot).
Assay [2] shares this target. As to the kind of experiment: co-immunoprecipitation from HEK293 lysate (anti-myc IP / anti-IKBα blot and the reverse).
For assay [3] the target is unchanged. As to the kind of experiment: co-immunoprecipitation from HEK293 lysate (anti-IKBα IP / anti-myc blot and the reverse).

Consider “N-terminal 103 amino acids of RCAN1 (expressed from pcDNA3.1RCAN1-103mychis in HEK293 cells) (from UniProt P53805 56-158)”, for which, in assay [1], the binding result is “binds”. In the case of “RCAN1.1-myc (regulator of calcineurin 1, splicing isoform 1, expressed from pcDNA3.1(-)RCAN1.1-myc in HEK293 cells) (from UniProt P53805 56-252)”, the binding entry in assay [2] and in assay [3] was “binds” throughout.
